Some results were stated once for a whole list of compounds, not compound by compound.
System: BN-GP T cells
Assay: IFNβ anti-proliferative activity in IL-2 stimulated cultures of BN-GP T cells
Assay type: cell-based, rat
Conditions: purified proteins; BN-GP T cells cultured in IL-2; read-out: half-maximal inhibition concentration
Method: FIG. 1. The IFNβ-NAg his-tagged fusion protein was biologically active and was purified on nickel resins. (A) To assess whether IFNβ-NAg induced class I MHC expression, thymocytes (5×10^6/ml in complete RPMI) were cultured with or without IFNβ-NAg for 2 days and then were stained with B5 (anti-MHC-I), OX18 (anti-MHC-I), R73 (anti-TCRβ), or OX81 (anti-IL4; isotype control) and were analyzed by flow cytometry. (B) To assess IFNβ-mediated anti-proliferative activity, supernatants from two independently derived IFNβ-NAg expression systems as well as supernatants from several control expression systems were added at designated titrations (x-axis) to IL-2 stimulated cultures of BN-GP T cells. (C) To assess the specificity of anti-proliferative activity, baculovirus supernatants containing IFNβ-NAg were added at designated titrations to cultures of rat (R1T, BN-GP, RsL.11T, RsL.11, or Conal.8D9) or mouse (CTLL) T cells. Proliferative assays (B & C) were pulsed with [^3H]thymidine on the second day of a 3-day culture. (D) Shown is a representative SDS-PAGE analysis of purified IFNβ-NAg.
FIG. 2. Structure-function analysis of the cytokine and NAg domains of IFNβ fusion proteins. (A) Expression supernatants containing designated IFNβ fusion proteins (see Table 2) were added to cultures of BN-GP T cells at designated titrations (x-axis). […]

B1: IFNβ-NAg: Fusion protein: rat IFNβ, enterokinase linker (GDDDDKG), encephalitogenic 73-87 peptide of guinea pig MBP, C-terminal 6-histidine tag (protein)
chain: IDYKQLQFRQSTSIRTCQKLLRQLNGRLNLSYRTDFKIPMEVMHPSQMEKSYTAFAIQVMLQNVFLVFRSNFSSTGWNETIVESLLDELHQQTELLEIILKEKQEERLTWVTSTTTLGLKSYYWRVQRYLKDKKYNSYAWMVVRAEVFRNFSIILRLNRNFQNGDDDDKGPQKSQRSQDENPVVHHHHHH
- IC50: 1 to 10 pM

From patent US10363306B2, “Cytokines and neuroantigens for treatment of immune disorders” (East Carolina University, priority 2009, dated 2019)
